From the supplement of paper PMC10849652
Some of the results follow.

Protein sequences, listed by entry. Tags and fused reporters are not part of them. Lines headed by an entry give the natural chain unless they say otherwise; changes in a name come on top.
UniProt Q9NXC5: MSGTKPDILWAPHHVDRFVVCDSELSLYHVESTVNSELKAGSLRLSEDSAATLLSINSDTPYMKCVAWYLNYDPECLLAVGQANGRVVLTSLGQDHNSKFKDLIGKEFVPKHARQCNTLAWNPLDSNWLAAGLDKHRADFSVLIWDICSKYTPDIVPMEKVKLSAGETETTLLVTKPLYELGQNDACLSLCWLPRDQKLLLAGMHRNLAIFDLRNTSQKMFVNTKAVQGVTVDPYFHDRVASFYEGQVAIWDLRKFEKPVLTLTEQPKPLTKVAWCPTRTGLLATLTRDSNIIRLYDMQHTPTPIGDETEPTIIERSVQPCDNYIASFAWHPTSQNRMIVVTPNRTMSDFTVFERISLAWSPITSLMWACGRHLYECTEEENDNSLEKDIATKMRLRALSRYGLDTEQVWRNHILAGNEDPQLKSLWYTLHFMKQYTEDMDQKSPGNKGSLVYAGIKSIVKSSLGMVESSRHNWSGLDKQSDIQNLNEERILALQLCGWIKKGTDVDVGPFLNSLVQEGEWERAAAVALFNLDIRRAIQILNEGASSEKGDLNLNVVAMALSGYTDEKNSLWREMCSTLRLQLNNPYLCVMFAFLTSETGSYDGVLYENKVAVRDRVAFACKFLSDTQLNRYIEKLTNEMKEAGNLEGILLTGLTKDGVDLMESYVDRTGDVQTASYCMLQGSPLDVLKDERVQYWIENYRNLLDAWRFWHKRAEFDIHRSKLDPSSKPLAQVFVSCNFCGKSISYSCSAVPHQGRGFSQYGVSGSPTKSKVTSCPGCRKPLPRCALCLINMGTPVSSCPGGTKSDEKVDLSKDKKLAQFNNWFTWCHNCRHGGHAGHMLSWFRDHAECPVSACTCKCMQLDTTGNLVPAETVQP
UniProt Q03111: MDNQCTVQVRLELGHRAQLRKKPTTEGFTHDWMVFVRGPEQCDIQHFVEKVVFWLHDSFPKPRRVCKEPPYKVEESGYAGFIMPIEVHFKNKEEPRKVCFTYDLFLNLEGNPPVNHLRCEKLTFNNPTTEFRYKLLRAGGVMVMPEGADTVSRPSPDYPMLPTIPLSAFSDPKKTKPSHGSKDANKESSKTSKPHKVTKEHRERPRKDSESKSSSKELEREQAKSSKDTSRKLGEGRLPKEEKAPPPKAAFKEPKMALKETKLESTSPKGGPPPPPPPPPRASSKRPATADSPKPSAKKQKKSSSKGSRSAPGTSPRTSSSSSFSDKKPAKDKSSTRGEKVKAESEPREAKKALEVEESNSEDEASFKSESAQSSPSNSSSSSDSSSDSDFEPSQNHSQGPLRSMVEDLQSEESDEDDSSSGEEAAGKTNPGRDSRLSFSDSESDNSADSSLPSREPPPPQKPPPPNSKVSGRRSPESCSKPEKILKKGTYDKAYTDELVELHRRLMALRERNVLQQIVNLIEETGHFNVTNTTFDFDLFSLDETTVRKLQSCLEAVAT
UniProt P29372, whole entry, looked up: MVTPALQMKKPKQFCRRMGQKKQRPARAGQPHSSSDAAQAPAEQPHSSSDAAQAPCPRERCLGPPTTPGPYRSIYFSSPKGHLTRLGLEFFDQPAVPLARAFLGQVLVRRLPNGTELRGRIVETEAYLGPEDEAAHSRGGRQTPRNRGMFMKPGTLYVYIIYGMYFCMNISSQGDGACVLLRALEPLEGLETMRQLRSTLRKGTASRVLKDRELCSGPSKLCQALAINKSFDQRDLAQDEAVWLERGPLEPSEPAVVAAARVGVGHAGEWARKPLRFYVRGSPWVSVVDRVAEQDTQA
UniProt Q9HC36: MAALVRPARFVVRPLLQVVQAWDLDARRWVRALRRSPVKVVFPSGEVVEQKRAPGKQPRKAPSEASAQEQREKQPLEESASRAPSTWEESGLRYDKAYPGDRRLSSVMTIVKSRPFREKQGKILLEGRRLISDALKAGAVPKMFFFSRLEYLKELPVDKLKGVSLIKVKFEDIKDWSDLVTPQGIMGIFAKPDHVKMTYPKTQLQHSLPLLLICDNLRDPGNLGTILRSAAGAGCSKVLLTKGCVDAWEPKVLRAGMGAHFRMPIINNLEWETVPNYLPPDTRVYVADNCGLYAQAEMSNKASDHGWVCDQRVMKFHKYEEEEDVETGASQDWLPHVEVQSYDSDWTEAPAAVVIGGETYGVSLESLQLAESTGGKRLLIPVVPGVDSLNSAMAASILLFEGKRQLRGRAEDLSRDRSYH
UniProt Q7L9L4: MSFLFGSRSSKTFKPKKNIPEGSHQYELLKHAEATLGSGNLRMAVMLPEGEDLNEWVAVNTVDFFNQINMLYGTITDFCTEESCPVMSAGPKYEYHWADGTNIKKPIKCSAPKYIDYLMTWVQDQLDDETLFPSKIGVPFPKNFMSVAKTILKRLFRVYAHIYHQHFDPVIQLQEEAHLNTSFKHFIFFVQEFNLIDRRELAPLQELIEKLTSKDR
UniProt Q6WCQ1: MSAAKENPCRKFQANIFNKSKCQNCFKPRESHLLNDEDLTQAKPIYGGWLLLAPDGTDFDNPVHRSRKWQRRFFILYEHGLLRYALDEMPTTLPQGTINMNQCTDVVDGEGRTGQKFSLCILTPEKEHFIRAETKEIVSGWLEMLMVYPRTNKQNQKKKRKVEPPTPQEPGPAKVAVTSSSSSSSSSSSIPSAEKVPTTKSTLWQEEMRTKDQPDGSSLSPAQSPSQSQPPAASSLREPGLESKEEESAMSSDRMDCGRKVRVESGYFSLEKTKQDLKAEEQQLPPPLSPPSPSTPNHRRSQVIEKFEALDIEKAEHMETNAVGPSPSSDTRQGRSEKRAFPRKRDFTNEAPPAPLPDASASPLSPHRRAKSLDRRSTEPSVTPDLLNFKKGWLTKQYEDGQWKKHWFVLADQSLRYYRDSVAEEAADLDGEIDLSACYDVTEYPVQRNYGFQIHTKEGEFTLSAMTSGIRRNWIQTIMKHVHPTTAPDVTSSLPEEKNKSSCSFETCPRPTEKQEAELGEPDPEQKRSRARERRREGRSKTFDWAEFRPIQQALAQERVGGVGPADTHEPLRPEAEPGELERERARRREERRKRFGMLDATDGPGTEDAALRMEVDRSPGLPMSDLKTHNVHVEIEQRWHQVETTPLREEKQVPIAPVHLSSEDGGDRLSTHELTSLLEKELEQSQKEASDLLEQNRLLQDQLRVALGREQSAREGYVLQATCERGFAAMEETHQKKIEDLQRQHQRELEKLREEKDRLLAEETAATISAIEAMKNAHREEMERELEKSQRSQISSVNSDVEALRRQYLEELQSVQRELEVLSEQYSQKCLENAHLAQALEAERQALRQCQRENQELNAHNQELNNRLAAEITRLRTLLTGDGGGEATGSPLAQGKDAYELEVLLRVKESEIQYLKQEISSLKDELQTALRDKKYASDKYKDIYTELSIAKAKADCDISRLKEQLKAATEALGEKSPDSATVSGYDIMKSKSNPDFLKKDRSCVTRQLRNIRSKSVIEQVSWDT
UniProt Q5TGZ0: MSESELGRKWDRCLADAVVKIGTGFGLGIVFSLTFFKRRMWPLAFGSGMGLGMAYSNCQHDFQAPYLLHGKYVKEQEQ
UniProt Q9UNW1: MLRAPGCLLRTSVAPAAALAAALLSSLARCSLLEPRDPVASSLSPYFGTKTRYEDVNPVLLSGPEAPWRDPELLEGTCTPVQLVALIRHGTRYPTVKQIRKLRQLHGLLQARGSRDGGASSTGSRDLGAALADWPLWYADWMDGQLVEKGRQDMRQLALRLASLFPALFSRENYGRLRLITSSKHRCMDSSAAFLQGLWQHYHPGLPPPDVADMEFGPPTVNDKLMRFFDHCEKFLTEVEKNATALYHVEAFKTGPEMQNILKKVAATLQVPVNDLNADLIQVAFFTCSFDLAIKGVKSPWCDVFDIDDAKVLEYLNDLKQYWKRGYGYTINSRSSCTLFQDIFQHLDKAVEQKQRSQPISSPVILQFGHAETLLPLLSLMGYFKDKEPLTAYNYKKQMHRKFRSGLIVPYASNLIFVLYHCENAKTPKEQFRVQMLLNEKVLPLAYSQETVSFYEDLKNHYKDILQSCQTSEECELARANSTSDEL
UniProt P49959: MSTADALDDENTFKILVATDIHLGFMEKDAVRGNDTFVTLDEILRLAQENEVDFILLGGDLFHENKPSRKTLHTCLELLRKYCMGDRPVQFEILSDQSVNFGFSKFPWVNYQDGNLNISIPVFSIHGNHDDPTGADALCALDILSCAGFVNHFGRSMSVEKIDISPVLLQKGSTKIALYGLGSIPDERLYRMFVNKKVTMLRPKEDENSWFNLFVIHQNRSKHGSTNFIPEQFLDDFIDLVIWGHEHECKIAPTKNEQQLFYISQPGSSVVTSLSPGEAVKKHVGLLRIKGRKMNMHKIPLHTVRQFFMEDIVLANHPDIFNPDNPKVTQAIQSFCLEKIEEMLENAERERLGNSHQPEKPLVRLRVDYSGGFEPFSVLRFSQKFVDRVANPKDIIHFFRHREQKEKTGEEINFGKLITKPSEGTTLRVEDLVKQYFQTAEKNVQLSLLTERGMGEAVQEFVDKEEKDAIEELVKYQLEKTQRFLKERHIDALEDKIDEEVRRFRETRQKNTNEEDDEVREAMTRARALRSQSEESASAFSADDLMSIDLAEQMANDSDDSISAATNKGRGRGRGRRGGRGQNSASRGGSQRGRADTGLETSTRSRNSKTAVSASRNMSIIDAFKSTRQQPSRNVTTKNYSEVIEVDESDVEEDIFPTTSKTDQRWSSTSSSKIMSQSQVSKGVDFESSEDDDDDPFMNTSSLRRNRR
UniProt P25325: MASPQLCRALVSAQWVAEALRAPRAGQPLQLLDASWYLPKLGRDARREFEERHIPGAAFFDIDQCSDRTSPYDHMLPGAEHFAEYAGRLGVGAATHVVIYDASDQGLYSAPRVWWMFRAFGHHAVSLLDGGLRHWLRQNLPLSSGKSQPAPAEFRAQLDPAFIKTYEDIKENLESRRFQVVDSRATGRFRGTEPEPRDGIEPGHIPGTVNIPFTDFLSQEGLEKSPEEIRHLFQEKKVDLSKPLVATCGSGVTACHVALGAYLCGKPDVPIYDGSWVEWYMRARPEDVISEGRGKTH
UniProt O95563: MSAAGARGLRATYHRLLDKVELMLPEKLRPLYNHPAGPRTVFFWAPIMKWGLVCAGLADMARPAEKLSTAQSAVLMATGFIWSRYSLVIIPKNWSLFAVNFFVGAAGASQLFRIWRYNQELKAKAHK
UniProt Q9NYP9: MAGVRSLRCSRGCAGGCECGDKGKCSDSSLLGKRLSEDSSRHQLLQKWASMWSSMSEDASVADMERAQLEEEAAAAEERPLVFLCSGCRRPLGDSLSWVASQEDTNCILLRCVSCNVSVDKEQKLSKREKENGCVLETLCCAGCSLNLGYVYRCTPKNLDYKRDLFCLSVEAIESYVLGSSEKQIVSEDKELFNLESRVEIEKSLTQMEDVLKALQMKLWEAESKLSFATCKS
UniProt Q9BV20: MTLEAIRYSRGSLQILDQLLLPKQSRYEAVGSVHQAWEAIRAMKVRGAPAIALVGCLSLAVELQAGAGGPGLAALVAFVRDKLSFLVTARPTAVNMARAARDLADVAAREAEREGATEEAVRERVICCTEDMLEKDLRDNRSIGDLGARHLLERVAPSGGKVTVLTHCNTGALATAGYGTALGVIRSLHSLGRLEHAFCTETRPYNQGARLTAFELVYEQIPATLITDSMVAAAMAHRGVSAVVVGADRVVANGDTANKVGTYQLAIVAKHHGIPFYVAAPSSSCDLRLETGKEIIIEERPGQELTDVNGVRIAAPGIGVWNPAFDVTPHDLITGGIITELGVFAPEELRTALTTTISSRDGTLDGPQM
UniProt Q13724: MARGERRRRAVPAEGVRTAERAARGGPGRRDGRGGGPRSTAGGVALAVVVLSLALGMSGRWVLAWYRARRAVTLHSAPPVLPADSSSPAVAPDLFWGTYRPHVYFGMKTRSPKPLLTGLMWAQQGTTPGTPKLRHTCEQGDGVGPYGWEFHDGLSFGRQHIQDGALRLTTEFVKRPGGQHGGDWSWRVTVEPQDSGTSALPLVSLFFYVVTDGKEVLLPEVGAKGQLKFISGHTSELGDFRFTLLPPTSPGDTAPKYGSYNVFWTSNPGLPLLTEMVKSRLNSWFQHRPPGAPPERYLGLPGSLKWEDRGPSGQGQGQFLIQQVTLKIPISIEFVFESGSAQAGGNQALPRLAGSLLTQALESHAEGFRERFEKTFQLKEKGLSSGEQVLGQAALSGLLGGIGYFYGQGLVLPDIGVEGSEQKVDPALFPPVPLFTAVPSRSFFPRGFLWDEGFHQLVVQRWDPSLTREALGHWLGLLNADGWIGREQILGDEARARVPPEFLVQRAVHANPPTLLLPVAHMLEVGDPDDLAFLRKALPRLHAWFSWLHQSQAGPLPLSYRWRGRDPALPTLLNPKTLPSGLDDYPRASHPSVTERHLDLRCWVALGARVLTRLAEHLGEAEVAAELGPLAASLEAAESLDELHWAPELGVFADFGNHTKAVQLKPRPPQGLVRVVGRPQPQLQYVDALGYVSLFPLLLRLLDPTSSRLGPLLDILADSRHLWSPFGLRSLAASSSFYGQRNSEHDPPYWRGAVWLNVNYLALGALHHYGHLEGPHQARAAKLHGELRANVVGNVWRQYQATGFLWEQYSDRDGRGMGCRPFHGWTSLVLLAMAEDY

compound: C1COCCN1CCN2C3=CC=CC=C3N=C2NC(=O)C4=CC(=CC=C4)[N+](=O)[O-] [IRAK-1-4 Inhibitor I]; test: log2 fold change, soluble protein after heating vs DMSO (PISA); higher = thermal stabilisation; K562 cells, 10 uM, 30 min; active = over 0.2 and 3.5 SD of the protein, either way, in both replicates (recomputed)
Outline: (§1)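 K562 cells at 2×10^6 cells/mL were treated for 30 min with 10 μM compound, and aliquots were heated for 3 min over 48°C-58°C before pooling. Extraction used PBS with 0.5% NP-40 at 4°C, and soluble protein was the supernatant after 21,000xg for 90 min, measured by TMTpro 16plex LC-MS/MS with channel sums equalised. Thermal stability values, relative to control samples and from duplicates, are log2 fold changes.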

log2 fold change, inactive:
MIOS (UniProt Q9NXC5) -0.096
MLLT1 (UniProt Q03111) -0.017
MRPL37 (UniProt Q9BZE1) -0.111
MRPL30 isoform 2 (UniProt Q8TCC3) -0.08
MLEC (UniProt Q14165) -0.003
MRPL24 (UniProt Q96A35) -0.063
MMUT (UniProt P22033) 0.012
MRPL39 (UniProt Q9NYK5) -0.039
MRPL54 (UniProt Q6P161) 0.04
MRPL17 (UniProt Q9NRX2) -0.106
MPG (UniProt P29372) -0.21
MRPL48 (UniProt Q96GC5) -0.158
MRM3 (UniProt Q9HC36) -0.165
MRPL20 (UniProt Q9BYC9) -0.157
MRPL49 (UniProt Q13405) -0.107
MRPL4 (UniProt Q9BYD3) -0.06
MPZL1 (UniProt O95297) 0.045
MOB1B isoform 2 (UniProt Q7L9L4) 0.072
MPRIP isoform 2 (UniProt Q6WCQ1) 0.125
MRPL44 (UniProt Q9H9J2) -0.151
MRPL21 (UniProt Q7Z2W9) -0.177
MICOS10 (UniProt Q5TGZ0) -0.037
MRPL40 (UniProt Q9NQ50) -0.012
MMGT1 (UniProt Q8N4V1) 0.038
MINPP1 (UniProt Q9UNW1) 0.049
MRE11 isoform 3 (UniProt P49959) 0.024
MPST isoform 2 (UniProt P25325) 0.198
MRPL11 (UniProt Q9Y3B7) -0.154
MRPL12 (UniProt P52815) -0.046
MPC2 (UniProt O95563) -0.008
MOCS1 isoform 8 (UniProt Q9NZB8) 0.049
MIS18A (UniProt Q9NYP9) -0.01
MRI1 (UniProt Q9BV20) 0.047
MOGS (UniProt Q13724) -0.06
MRPL45 (UniProt Q9BRJ2) -0.083
MRPL43 isoform 4 (UniProt Q8N983) -0.042
MINDY3 (UniProt Q9H8M7) 0.021
MRPL13 (UniProt Q9BYD1) -0.069

compound: C=CC(=O)N1CCC[C@@H](n2nc(-c3ccc(Oc4ccccc4)cc3)c3c(N)ncnc32)C1 [ibrutinib]; test: as above
Outline: as §1

log2 fold change, inactive:
MIOS (UniProt Q9NXC5) 0.007
MLLT1 (UniProt Q03111) 0.063
MRPL37 (UniProt Q9BZE1) -0.025
MRPL30 isoform 2 (UniProt Q8TCC3) 0.023
MLEC (UniProt Q14165) -0.03
MRPL24 (UniProt Q96A35) -0.051
MMUT (UniProt P22033) -0.019
MRPL39 (UniProt Q9NYK5) 0.019
MRPL54 (UniProt Q6P161) 0.053
MRPL17 (UniProt Q9NRX2) -0.049
MPG (UniProt P29372) 0.036
MRPL48 (UniProt Q96GC5) -0.032
MRM3 (UniProt Q9HC36) 0.056
MRPL20 (UniProt Q9BYC9) -0.002
MRPL49 (UniProt Q13405) -0.011
MRPL4 (UniProt Q9BYD3) -0.003
MPZL1 (UniProt O95297) 0.015
MOB1B isoform 2 (UniProt Q7L9L4) -0.016
MPRIP isoform 2 (UniProt Q6WCQ1) -0.068
MRPL44 (UniProt Q9H9J2) -0.027
MRPL21 (UniProt Q7Z2W9) -0.046
MICOS10 (UniProt Q5TGZ0) -0.015
MRPL40 (UniProt Q9NQ50) -0.032
MMGT1 (UniProt Q8N4V1) -0.038
MINPP1 (UniProt Q9UNW1) -0.003
MRE11 isoform 3 (UniProt P49959) -0.004
MPST isoform 2 (UniProt P25325) -0.03
MRPL11 (UniProt Q9Y3B7) 0.009
MRPL12 (UniProt P52815) -0.016
MPC2 (UniProt O95563) -0.037
MOCS1 isoform 8 (UniProt Q9NZB8) 0.162
MIS18A (UniProt Q9NYP9) 0.003
MRI1 (UniProt Q9BV20) 0
MOGS (UniProt Q13724) -0.013
MRPL45 (UniProt Q9BRJ2) 0.013
MRPL43 isoform 4 (UniProt Q8N983) -0.003
MINDY3 (UniProt Q9H8M7) -0.003
MRPL13 (UniProt Q9BYD1) -0.035
